{"source": "PubChem BioAssay AID652243 (Drosophila RNAi Screening Center, 2013)", "assay": "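Knock-downs that decrease or increase androgen receptor reporter signal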 (primary screen)", "cells": "Drosophila S2R+ cells", "reagents": "long dsRNA against Drosophila genes", "time to read-out": "72 h (48 h, then 24 h hormone)", "conditions": "synthetic androgen R1881 at 10 nM for 24 h", "read-out": "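Firefly light from an androgen-responsive reporter and Renilla control light per well, raw and unnormalised, for each of two replicates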", "direction": "firefly reporter light: higher = more light from androgen-responsive reporter; Renilla control light: higher = more constitutive control signal (cell number, transfection)", "call rule": "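Across duplicate plates, a knock-down whose log firefly/Renilla ratio shifted a set fold down or up from the GFP/LacZ control mean was a hit; the downward cut appears as both 1.5 and 3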", "calls": "active = hit: reporter lowered or raised; inactive = no hit", "note": "The deposit covers about 24,000 reagents; this is a random part of those that have a named target and a result. Over the whole deposit, 246 (1%) were called active. 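Plates not normalised; calls are printed but the firefly/Renilla ratio behind them is not deposited; fold cut for lowering reported inconsistently.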 Raw values vary from plate to plate and are shown uncorrected. Entries without a mark were called inactive. Names joined by + are all predicted targets of the reagent. The record does not give: the amount of reagent."}
The first 2 records as a preview:
{"gene knocked down": "CG44251 (GeneID 36429)", "dsRNA": "DRSC06856", "firefly reporter light, replicate 1": 3.42e5, "firefly reporter light, replicate 2": 2.12e5, "Renilla control light, replicate 1": 1.62e6, "Renilla control light, replicate 2": 1.16e6}
{"gene knocked down": "CG44251 (GeneID 36429)", "dsRNA": "DRSC24631", "firefly reporter light, replicate 1": 6.27e5, "firefly reporter light, replicate 2": 1.06e6, "Renilla control light, replicate 1": 7.79e5, "Renilla control light, replicate 2": 1.02e6}

The listing, from the start:
{"gene knocked down": "CG44251 (GeneID 36429)", "dsRNA": "DRSC06856", "firefly reporter light, replicate 1": 3.42e5, "firefly reporter light, replicate 2": 2.12e5, "Renilla control light, replicate 1": 1.62e6, "Renilla control light, replicate 2": 1.16e6}
{"gene knocked down": "CG44251 (GeneID 36429)", "dsRNA": "DRSC24631", "firefly reporter light, replicate 1": 6.27e5, "firefly reporter light, replicate 2": 1.06e6, "Renilla control light, replicate 1": 7.79e5, "Renilla control light, replicate 2": 1.02e6}
{"gene knocked down": "BG642167 (GeneID 4379865)", "dsRNA": "DRSC38707", "firefly reporter light, replicate 1": 1.11e6, "firefly reporter light, replicate 2": 9.67e5, "Renilla control light, replicate 1": 1.78e6, "Renilla control light, replicate 2": 2.18e6}
{"gene knocked down": "Drp1 (GeneID 33445)", "dsRNA": "DRSC00574", "firefly reporter light, replicate 1": 9.60e5, "firefly reporter light, replicate 2": 1.03e6, "Renilla control light, replicate 1": 3.23e6, "Renilla control light, replicate 2": 1.83e6}
{"gene knocked down": "Drp1 (GeneID 33445)", "dsRNA": "DRSC26413", "firefly reporter light, replicate 1": 5.40e5, "firefly reporter light, replicate 2": 5.14e5, "Renilla control light, replicate 1": 5.85e5, "Renilla control light, replicate 2": 6.37e5}
{"gene knocked down": "CG14631 (GeneID 31049)", "dsRNA": "DRSC17792", "firefly reporter light, replicate 1": 3.70e5, "firefly reporter light, replicate 2": 4.30e5, "Renilla control light, replicate 1": 4.98e6, "Renilla control light, replicate 2": 4.45e6}
{"gene knocked down": "CG14631 (GeneID 31049)", "dsRNA": "DRSC17941", "firefly reporter light, replicate 1": 2.75e5, "firefly reporter light, replicate 2": 3.21e5, "Renilla control light, replicate 1": 3.82e6, "Renilla control light, replicate 2": 3.35e6}
{"gene knocked down": "CG42376 + cin", "dsRNA": "DRSC18752", "firefly reporter light, replicate 1": 1.31e5, "firefly reporter light, replicate 2": 96592, "Renilla control light, replicate 1": 9.44e5, "Renilla control light, replicate 2": 5.93e5}
{"gene knocked down": "CG42376 + cin", "dsRNA": "DRSC29294", "firefly reporter light, replicate 1": 5.37e5, "firefly reporter light, replicate 2": 5.03e5, "Renilla control light, replicate 1": 8.74e5, "Renilla control light, replicate 2": 1.16e6}
{"gene knocked down": "CG3473 (GeneID 34849)", "dsRNA": "DRSC01915", "firefly reporter light, replicate 1": 2.71e5, "firefly reporter light, replicate 2": 3.04e5, "Renilla control light, replicate 1": 2.72e6, "Renilla control light, replicate 2": 3.18e6}
{"gene knocked down": "Tsp5D (GeneID 31540)", "dsRNA": "DRSC18380", "firefly reporter light, replicate 1": 4.04e5, "firefly reporter light, replicate 2": 4.85e5, "Renilla control light, replicate 1": 3.25e6, "Renilla control light, replicate 2": 2.81e6}
{"gene knocked down": "Srg3 (GeneID 39092)", "dsRNA": "DRSC08984", "firefly reporter light, replicate 1": 1.48e5, "firefly reporter light, replicate 2": 2.13e5, "Renilla control light, replicate 1": 5.69e5, "Renilla control light, replicate 2": 6.47e5}
{"gene knocked down": "Srg3 (GeneID 39092)", "dsRNA": "DRSC10178", "firefly reporter light, replicate 1": 2.50e5, "firefly reporter light, replicate 2": 2.52e5, "Renilla control light, replicate 1": 2.84e6, "Renilla control light, replicate 2": 1.53e6}
{"gene knocked down": "Sema1a (GeneID 34192)", "dsRNA": "DRSC03433", "firefly reporter light, replicate 1": 2.77e5, "firefly reporter light, replicate 2": 1.71e5, "Renilla control light, replicate 1": 1.41e6, "Renilla control light, replicate 2": 1.37e6}
